PubChem BioAssay AID652243 – Drosophila RNAi Screening Center, 2013
The deposit covers about 24,000 reagents; shown is a random part of those that have a named target and a result. Over the whole deposit, 246 (1%) got an active call. 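Plates not normalised; calls are printed but the firefly/Renilla ratio behind them is not deposited; fold cut for lowering reported inconsistently.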 The raw values are shown without normalisation. Names joined by + are all predicted targets of the reagent. Not given: the amount of reagent.

Test: 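Knock-downs that decrease or increase androgen receptor reporter signal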 (primary screen)
Cell system: Drosophila S2R+ cells
Reagent: long dsRNA against Drosophila genes
Timing: 72 h (48 h, then 24 h hormone)
Conditions: synthetic androgen R1881 at 10 nM for 24 h
Read-out: 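Per-well raw luminescence of the androgen-driven firefly reporter and of the Renilla control, two replicates each, without normalisation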
Scale: firefly reporter light: higher = more light from androgen-responsive reporter; Renilla control light: higher = more constitutive control signal (cell number, transfection)
Call rule: 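Across duplicate plates, a knock-down whose log firefly/Renilla ratio shifted a set fold down or up from the GFP/LacZ control mean was a hit; the downward cut appears as both 1.5 and 3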
Meaning of the calls: active = hit: reporter lowered or raised; inactive = no hit

| gene | dsRNA | firefly reporter light, replicate 1 | firefly reporter light, replicate 2 | Renilla control light, replicate 1 | Renilla control light, replicate 2 | call |
| --- | --- | --- | --- | --- | --- | --- |
| CtsK1 | DRSC08742 | 2.80e5 | 2.24e5 | 2.96e6 | 2.49e6 | inactive |
| Ir31a | DRSC22358 | 7.49e5 | 7.69e5 | 2.21e6 | 2.43e6 | inactive |
| beta-PheRS | DRSC15859 | 65124 | 43760 | 3.52e5 | 3.86e5 | inactive |
| beta-PheRS | DRSC26218 | 3.85e5 | 4.91e5 | 4.57e5 | 4.56e5 | inactive |
| Kat60 | DRSC12378 | 27647 | 53147 | 8.75e5 | 7.60e5 | inactive |
| CG13674 | DRSC10033 | 3.47e5 | 2.74e5 | 3.80e6 | 2.30e6 | inactive |
| CG13674 | DRSC27828 | 2.09e5 | 2.42e5 | 5.21e5 | 7.06e5 | inactive |
| CG16888 | DRSC02541 | 1.81e5 | 1.68e5 | 1.35e6 | 1.36e6 | inactive |
| CG14160 | DRSC10161 | 1.82e5 | 1.58e5 | 1.83e6 | 1.37e6 | inactive |
| Ack-like | DRSC07500 | 7.84e5 | 1.18e6 | 1.21e6 | 1.12e6 | inactive |
| Ack-like | DRSC21845 | 6.80e5 | 5.99e5 | 1.18e6 | 8.43e5 | inactive |
| Ack-like | DRSC28341 | 2.97e5 | 6.54e5 | 8.96e5 | 1.76e6 | inactive |
| Ack-like | DRSC36683 | – | – | – | – | inactive |
| Ack-like | DRSC36684 | – | – | – | – | inactive |
| CG5895 | DRSC10554 | 2.08e5 | 1.78e5 | 1.54e6 | 1.07e6 | inactive |
| Su(var)205 | DRSC03446 | 7.77e5 | 7.07e5 | 2.04e6 | 2.05e6 | inactive |
| l(2)09851 | DRSC04858 | 4.96e5 | 5.40e5 | 3.06e6 | 2.83e6 | inactive |
| CG12096 | DRSC21692 | 7.61e5 | 5.96e5 | 2.26e6 | 2.01e6 | inactive |
| CG12096 | DRSC27886 | 5.77e5 | 3.81e5 | 1.36e6 | 1.11e6 | inactive |
| Or94b | DRSC16773 | 2.61e5 | 2.42e5 | 2.42e6 | 2.31e6 | inactive |
| Or94b | DRSC27188 | 2.57e5 | 2.50e5 | 7.41e5 | 7.30e5 | inactive |
| CR41379 + Rint1 | DRSC38730 | 1.16e6 | 1.02e6 | 1.74e6 | 2.00e6 | inactive |
| CG17593 | DRSC00504 | 1.29e5 | 83456 | 8.21e5 | 6.87e5 | inactive |
| CG17593 | DRSC27490 | 2.68e5 | 3.05e5 | 7.58e5 | 9.40e5 | inactive |
| CG2736 | DRSC04314 | 7.35e5 | 7.25e5 | 1.30e6 | 1.65e6 | inactive |
| sno | DRSC20378 | 2.32e5 | 2.45e5 | 7.86e5 | 8.56e5 | inactive |
| Ubr1 | DRSC20148 | 85146 | 83597 | 8.29e5 | 6.55e5 | inactive |
| CG4269 | DRSC04457 | 2.26e5 | 2.91e5 | 1.82e6 | 2.52e6 | inactive |
| crol | DRSC03514 | 8.37e5 | 9.20e5 | 1.93e6 | 2.59e6 | inactive |
| crol | DRSC21348 | 7.89e5 | 6.93e5 | 1.06e6 | 1.36e6 | inactive |
| crol | DRSC26800 | 3.59e5 | 3.05e5 | 5.22e5 | 6.02e5 | inactive |
| CG2574 | DRSC19862 | 4.52e5 | 4.10e5 | 3.11e6 | 2.80e6 | inactive |
| Fadd | DRSC14122 | 2.76e5 | 2.83e5 | 3.27e6 | 3.13e6 | inactive |
| CG3803 | DRSC04420 | 2.97e5 | 2.71e5 | 1.67e6 | 1.51e6 | inactive |
| mRpL33 | DRSC18319 | 3.79e5 | 5.19e5 | 3.81e6 | 4.01e6 | inactive |
| mri | DRSC08259 | 4.22e5 | 5.85e5 | 7.86e5 | 8.42e5 | inactive |
| mri | DRSC27787 | 1.67e5 | 1.63e5 | 3.88e5 | 5.55e5 | inactive |
| CG9926 | DRSC16582 | 1.02e5 | 81470 | 4.40e5 | 5.68e5 | inactive |
| CG9926 | DRSC29175 | 1.01e6 | 6.97e5 | 1.50e6 | 1.17e6 | inactive |
| Sarm | DRSC08906 | 1.09e6 | 1.06e6 | 1.54e6 | 9.64e5 | inactive |
| Sarm | DRSC08907 | 7.25e5 | 9.30e5 | 1.12e6 | 1.22e6 | inactive |
| Sarm | DRSC10038 | 3.57e5 | 3.12e5 | 3.41e6 | 2.72e6 | inactive |
| Sarm | DRSC10039 | 2.03e5 | 1.07e5 | 2.90e6 | 8.89e5 | inactive |
| Sarm | DRSC10927 | 2.01e5 | 2.67e5 | 1.98e6 | 2.05e6 | inactive |
| Sarm | DRSC10929 | 4.59e5 | 5.78e5 | 1.01e6 | 1.22e6 | inactive |
| Sarm | DRSC27924 | 4.31e5 | 3.97e5 | 1.49e6 | 1.08e6 | inactive |
